{
  "source": "patent US5270148A",
  "about": "“Processing solution for silver halide color photographic materials and method for processing the materials with the processing solution” (priority 1991, dated 1993)",
  "assay": "Example 3: turbidity of concentrated stabilizing replenisher after passage of time",
  "assay_type": "physicochemical",
  "design": "key: E: Neither turbidity nor precipitation.; G: Turbidity occurred very slightly.; M: Slightly precipitation formed at the bottom of the vessel in addition to turbidity.; B: Precipitation layer of 5 mm or more formed on the bottom of the vessel",
  "details": "0.3 mol, 40° C.",
  "description": "One liter of the concentrated stabilizing replenisher shown below was prepared and filled in a 1.2 liter polyethylene bottle.\nAfter allowing to stand the concentrated solution thus-prepared at 40° C. for 1 month or 6 months, the turbidity of the solution was visually observed.\nIn addition, the evaluation standards of the turbidity of the solution with the passage of time in Table C are as follows.",
  "note": "At least one structure is not confirmed: it was looked up by name or label, or the drawing left a doubt.",
  "data": [
    {"smiles": "O=C(NCO)NCO", "note": "[Dimethylolurea, reference compound]", "values": [
      {"measurement": "Turbidity after Passage of Time", "setting": "1 month", "result": "M"},
      {"measurement": "Turbidity after Passage of Time", "setting": "6 months", "result": "B (Precipitation layer of 5 mm or more formed on the bottom of the vessel.)"}
    ]}
  ]
}
